Source: US20160168210A1, “DERIVATIVES OF COLLAGEN-BINDING HAIRPIN PEPTIDES” (NATIONAL RESEARCH COUNCIL OF CANADA, priority 2012, published 2016)

Tested on: abdominal vena cava injured by FeCl3
Conditions: about 200 μl of imaging probe injected

Substance: FL4312: structurally identical to FL4247, but prepared from a different synthesis of the starting peptide P4247 (IRFTDGEWTWDDATKTWTWTEGGC)
- Mean thrombus weight: 0.02793 g

Substance: STWTWNGTNWTRNDGGC-Fluor750 (HiLyte Fluor750 conjugate; FL4447)
- Mean thrombus weight: 0.02184 g
